Values from PubChem BioAssay AID1159578 (Peter MacCallum Cancer Centre, 2015).
Purpose: 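siRNA pools altering how lymphatic endothelial cells close a scratch wound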 (primary screen). Cells: human lymphatic endothelial cells. Reagents: siRNA pool against human genes, 40 nM. Time to read-out: 48 h after transfection. Detection: 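High-content imaging of dye-stained cells in a scratch assay measures filled wound area and nuclei per well; duplicate means given as ratio to mock and robust z-score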. Reading the numbers: migration robust z-score: higher = faster migration into the scratch; nuclei per well: higher = more cells in the well. Active means: 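Pools averaging fewer than 3300 nuclei are never called; remaining pools count as changed when migration robust z lies outside -2 to 2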. Calls: active = migration changed; inactive = no migration change, or too few cells.
Here is a random part of about 18,000 deposited reagents. Over the whole deposit, about 1,030 (5.7%) are marked active. 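Inactive calls also include pools with fewer than 3300 nuclei, whose migration was not assessed.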 Raw values are not corrected between plates. Further read-outs or replicates are left out here.

How did the screen score FLI1 (GeneID 2313)?
migration robust z-score: -0.13; migration class with cell-count check: migration z between -2 and 2; enough cells; nuclei per well, duplicate mean: 4737; activity call: inactive

For ZNF660 (GeneID 285349), how do the results read?
migration robust z-score: 0.12; migration class with cell-count check: migration z between -2 and 2; enough cells; nuclei per well, duplicate mean: 6266; activity call: inactive

With SARS1 (GeneID 6301), what does the deposit list?
migration robust z-score: 0.65; migration class with cell-count check: migration z between -2 and 2; enough cells; nuclei per well, duplicate mean: 4890; activity call: inactive

What did the screen give for TMEM50B (GeneID 757)?
migration robust z-score: -0.06; migration class with cell-count check: migration z between -2 and 2; enough cells; nuclei per well, duplicate mean: 5509; activity call: inactive

Which result is listed for MBNL3 (GeneID 55796)?
migration robust z-score: -0.63; migration class with cell-count check: migration z between -2 and 2; enough cells; nuclei per well, duplicate mean: 6832; activity call: inactive

With TNNI1 (GeneID 7135), what was measured?
migration robust z-score: 0.94; migration class with cell-count check: migration z between -2 and 2; enough cells; nuclei per well, duplicate mean: 5648; activity call: inactive

Which result is listed for FAM8A1 (GeneID 51439)?
migration robust z-score: 0.52; migration class with cell-count check: migration z between -2 and 2; enough cells; nuclei per well, duplicate mean: 5974; activity call: inactive

What did the screen give for SATB1 (GeneID 6304)?
migration robust z-score: -1.08; migration class with cell-count check: migration z between -2 and 2; enough cells; nuclei per well, duplicate mean: 5517; activity call: inactive

How did the screen score IDE (GeneID 3416)?
migration robust z-score: -0.88; migration class with cell-count check: migration z between -2 and 2; enough cells; nuclei per well, duplicate mean: 6216; activity call: inactive

Which result is listed for VIM (GeneID 7431)?
migration robust z-score: 0.43; migration class with cell-count check: migration z between -2 and 2; enough cells; nuclei per well, duplicate mean: 4948; activity call: inactive

For TNNT1 (GeneID 7138), how do the results read?
migration robust z-score: 1.12; migration class with cell-count check: migration z between -2 and 2; enough cells; nuclei per well, duplicate mean: 5524; activity call: inactive

How did the screen score SPAG5 (GeneID 10615)?
migration robust z-score: -0.06; migration class with cell-count check: migration z between -2 and 2; enough cells; nuclei per well, duplicate mean: 4519; activity call: inactive

What did the screen give for C8orf44 (GeneID 56260)?
migration robust z-score: -2.08; migration class with cell-count check: migration z below -2; enough cells; nuclei per well, duplicate mean: 5980; activity call: active

In a second layout: results already given
gene,migration robust z-score,migration class with cell-count check,"nuclei per well, duplicate mean",activity call
VIM (GeneID 7431),0.43,migration z between -2 and 2; enough cells,4948,inactive
TNNT1 (GeneID 7138),1.12,migration z between -2 and 2; enough cells,5524,inactive

Additional entries:
What is on record for CNTN3 (GeneID 5067)?
migration robust z-score: 0.48; migration class with cell-count check: migration z between -2 and 2; enough cells; nuclei per well, duplicate mean: 6152; activity call: inactive

What did the screen give for GPR108 (GeneID 56927)?
migration robust z-score: -0.9; migration class with cell-count check: migration z between -2 and 2; enough cells; nuclei per well, duplicate mean: 4342; activity call: inactive

What did the screen give for DCAF5 (GeneID 8816)?
migration robust z-score: -0.91; migration class with cell-count check: migration z between -2 and 2; enough cells; nuclei per well, duplicate mean: 5816; activity call: inactive

For RBM38 (GeneID 55544), how do the results read?
migration robust z-score: 1.6; migration class with cell-count check: migration z between -2 and 2; enough cells; nuclei per well, duplicate mean: 4626; activity call: inactive

With IRF2BP2 (GeneID 359948), how do the results read?
migration robust z-score: -0.44; migration class with cell-count check: migration z between -2 and 2; enough cells; nuclei per well, duplicate mean: 4187; activity call: inactive

For LIPT1 (GeneID 51601), what does the deposit list?
migration robust z-score: -0.36; migration class with cell-count check: migration z between -2 and 2; enough cells; nuclei per well, duplicate mean: 5616; activity call: inactive

What did the screen give for ECH1 (GeneID 1891)?
migration robust z-score: 0.13; migration class with cell-count check: migration z between -2 and 2; enough cells; nuclei per well, duplicate mean: 5922; activity call: inactive

What is on record for ZSCAN5B (GeneID 342933)?
migration robust z-score: -0.2; migration class with cell-count check: migration z between -2 and 2; enough cells; nuclei per well, duplicate mean: 6443; activity call: inactive

What did the screen give for GNG8 (GeneID 94235)?
migration robust z-score: -2.4; migration class with cell-count check: under 3300 nuclei; migration not judged; nuclei per well, duplicate mean: 2555; activity call: inactive

For KLF9 (GeneID 687), what was measured?
migration robust z-score: 0.99; migration class with cell-count check: migration z between -2 and 2; enough cells; nuclei per well, duplicate mean: 5312; activity call: inactive

For SEC13 (GeneID 6396), how do the results read?
migration robust z-score: -1.38; migration class with cell-count check: migration z between -2 and 2; enough cells; nuclei per well, duplicate mean: 3604; activity call: inactive

Which result is listed for GSDMB (GeneID 55876)?
migration robust z-score: 0.77; migration class with cell-count check: migration z between -2 and 2; enough cells; nuclei per well, duplicate mean: 5986; activity call: inactive

What is on record for ENDOV (GeneID 284131)?
migration robust z-score: -1.06; migration class with cell-count check: migration z between -2 and 2; enough cells; nuclei per well, duplicate mean: 5822; activity call: inactive

For OR52M1 (GeneID 119772), what does the deposit list?
migration robust z-score: 0.93; migration class with cell-count check: migration z between -2 and 2; enough cells; nuclei per well, duplicate mean: 6336; activity call: inactive
